# From patent US9131691B2, “Use of amide compounds for preventing marine biofouling” (The Hong Kong University of Science and Technology, priority 2011, dated 2015)
# Some entries share one result that the patent states for a list of compounds.
# Test system: H. elegans larvae
# Assay: inhibition of larvae settlement of H. elegans
# Assay type: in vivo
# Conditions: ratio >10 regarded as non-toxic
# Protocol: The four amide compounds were tested for their abilities to inhibit larvae settlement of the H. elegans, using an experimental model of inhibition of larvae settlement H. elegans (Zhang Y., Xiao K., Qian P. Y., et al. 2D gel-based multiplexed proteomic analysis during larval development and metamorphosis of the biofouling polychaete tubeworm Hydroides elegans. Journal of proteome research. 2010, 9(9), 4851-4860). Adults of H. elegans were collected from Yung Shue O, Hong Kong (22° 25′N, 114° 16′E). The H. elegans larvae were reared according to Qian and Pechenik (Bryan P. J., Qian P. Y., Kreider J. L.; Chia F. S. Induction of larval settlement and metamorphosis by pharmacological and conspecific associated compounds in the serpulid polychaete Hydroides elegans. Marine ecology progress series. 1997, 146: 81-90; Qiu, J. W.; Qian, P. Y. Combined effects of salinity, temperature and food on early development of the polychaete Hydroides elegans. Marine ecology progress series. 1997, 152: 79-88). Briefly, they were reared for 4 days until they reach the settlement-competent stage on a diet of chrysophyte Isochrysis galbana under an aerated condition and a 15 h light/9 h dark photoperied at 25° C. […] The percentage of larvae settlement and larvae mortality was determined by counting the settled, live individuals under a dissecting microscope. […]
SMILES,LC50/EC50 (listed as piperdardine),LC50/EC50 (listed as piperoleine B)
"O=C(/C=C/C=C/CCc1ccc2c(c1)OCO2)N1CCCCC1 [Compound 3, 1-[1-oxo-7-(3′,4′-methylenedioxyphenyl)-2E,4E-heptadienyl]-piperine]",higher than 10,
"O=C(CCCCCC/C=C/c1ccc2c(c1)OCO2)N1CCCCC1 [Compound 1, 1-[1-oxo-9-(3′,4′-methylenedioxyphenyl)-8E-nonenyl]-piperine]",,higher than 10
